Among the data in PMC4882581, “Characterisation of assembly and ubiquitylation by the RBCC motif of Trim5α” (Scientific Reports, 2016) are binding values, retold here.

The chains behind the UniProt entries cited, without tags or fusion partners. Where a name states a change or a piece, a line headed by the entry shows the natural chain unless it says otherwise. A line that says so, or that is headed by a name, gives the form on record, which may keep a tag or linker. Residues count along the entry.
RhT5 1–70 (Trim5α RING domain) (Q0PF16, residues 1-70): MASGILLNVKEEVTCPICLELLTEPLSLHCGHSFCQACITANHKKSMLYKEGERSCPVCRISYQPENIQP
RhT5 88–261dCC E120K/R121D (Q0PF16, form named): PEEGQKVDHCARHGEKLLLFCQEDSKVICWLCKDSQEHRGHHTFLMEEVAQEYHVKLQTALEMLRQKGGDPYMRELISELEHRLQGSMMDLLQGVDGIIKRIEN

Results are given in words; binding and its absence hold for the method and conditions named.

In assay [1] the target is RhT5 1–70 (Trim5α RING domain) (Rhesus macaque) (UniProt Q0PF16). The assay is described as follows: SEC-MALLS; Superdex 75 10/300 GL (RhT5 1–70, RhT5 88–261dCC) or Superdex S200 Increase 10/300 GL (RhT5 1–261dCC); 10 mM Tris/HCl pH 7.8, 150 mM NaCl, 0.1 mM TCEP; several protein concentrations; both purified.
Assay [2] deals with RhT5 88-261dCC E120K/R121D (Rhesus macaque) (UniProt Q0PF16). Kind of assay: AUC; sedimentation velocity, c(S) analysis in SEDFIT, 50 krpm, 20 °C, 10 mM Tris/HCl pH 7.8, 150 mM NaCl; self-association over a series of protein concentrations; both purified.
For assay [3] the target is unchanged. The assay is described as follows: SAXS; serial dilution 60–480 μM (0.75 to 6.0 mg/mL); 10 mM Tris-HCl pH 7.8, 150 mM NaCl, 0.1 mM TCEP; both purified.
The target is the same in assay [4]. The assay is described as follows: SEC-MALLS; Superdex 75 10/300 GL (RhT5 1–70, RhT5 88–261dCC) or Superdex S200 Increase 10/300 GL (RhT5 1–261dCC); 10 mM Tris/HCl pH 7.8, 150 mM NaCl, 0.1 mM TCEP; several protein concentrations; both purified.
The target is the same in assay [5]. Kind of assay: AUC; sedimentation velocity, c(S) analysis, and isotherm of the weight-averaged S fit to a monomer-trimer model (monomer to trimer, RhT5 1–261dCC); 20 °C; 10 mM Tris/HCl pH 7.8, 150 mM NaCl; 50 krpm (RhT5 94–141, RhT5 88–261dCC) or 38 krpm (RhT5 1–261dCC); both purified.

For the substance “RhT5 1–70 (Trim5α RING domain) (from UniProt Q0PF16 1-70) (domain or fragment)”, in assay [1], the binding entry is reported as “no binding”.

Regarding “RhT5 88-261dCC E120K/R121D (from UniProt Q0PF16 88-154; Q0PF16 229-261) (domain or fragment)”, the binding entry in assay [2] was “no binding (tested: 20-80 μM)”.

As to “RhT5 88–261dCC E120K/R121D (from UniProt Q0PF16 88-154; Q0PF16 229-261) (domain or fragment)”, the binding result in assay [3] is recorded as “no binding (tested: 60–480 μM)”; in assay [4] it was “no binding”; in assay [5], “no binding (tested: 20–80 μM)”.
